Measurements reported in PubChem BioAssay AID720505 (Drosophila RNAi Screening Center, 2013).
The deposit covers about 20,000 reagents; shown is a random part of those with a known target gene and a result. In the full data, about 2,100 (10%) got an active call. 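Raw plate signals without normalisation; calls rest on control-based scores that were not deposited; replicate 2 separates called from uncalled poorly.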 Entries without a mark were called inactive. A plus sign joins genes that one reagent is predicted to hit. Not given: the amount of reagent, the time to read-out.

Test: 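Fly regulators or components of the CRAC channel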 (primary screen)
System: Drosophila S2R+ cells
Knock-down reagent: long dsRNA against Drosophila genes
Challenge: thapsigargin (2 µM) in calcium-free buffer to empty internal stores, then 2 mM calcium added back
Measured: 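Fluo-4 signal in 384-well plates read on a FLIPR after thapsigargin (2 µM, calcium-free) store depletion and 2 mM calcium add-back; unnormalised mean endpoint per well; screen run twice, selected wells retested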
Reading the numbers: calcium signal and retest calcium signal: higher = more calcium entry after store depletion
Active means: 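About 1500 genes called as lowering calcium entry, by varying amounts, judged against per-plate control wells with STIM1 as positive and Rho1 as negative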
Meaning of the calls: active = called as lowering calcium entry; inactive = not called

| gene | DRSC id | calcium signal, replicate 1 | calcium signal, replicate 2 | retest calcium signal, replicate 1 | retest calcium signal, replicate 2 |
| --- | --- | --- | --- | --- | --- |
| Arp53D (Actin-related protein 53D) | DRSC05923 | 147 | 165 | – | – |
| Snmp1 (Sensory neuron membrane protein 1) | DRSC16168 | 174 | 188 | – | – |
| ND-B16.6 (NADH dehydrogenase (ubiquinone) B16.6 subunit) | DRSC18306 | 147 | 85.5 | – | – |
| ND-B16.6 (NADH dehydrogenase (ubiquinone) B16.6 subunit) | DRSC22600 | 99.2 | 178 | – | – |
| SRPK (SR Protein Kinase) | DRSC07090 | 80.4 (active) | 102 | – | – |
| hrg (hiiragi) | DRSC07502 | 168 | 114 | – | – |
| Oda (Ornithine decarboxylase antizyme) | DRSC07626 | 125 | 147 | – | – |
| CG18269 | DRSC02660 | 123 | 125 | – | – |
| sub (subito) | DRSC06125 | 150 | 98.2 | – | – |
| CG12105 | DRSC08255 | 147 | 131 | – | – |
| CG30015 | DRSC05241 | 60.4 | 119 | – | – |
| CG30015 | DRSC07027 | 176 | 142 | – | – |
| CG30015 | DRSC07028 | 141 | 161 | – | – |
| Hsp67Bc (Heat shock gene 67Bc) | DRSC11193 | 81.2 | 70.1 | – | – |
| Cpr78Cc (Cuticular protein 78Cc) | DRSC11846 | 59.2 (active) | 103 | – | – |
| Atg8b (Autophagy-related 8b) | DRSC14501 | 51.5 (active) | 127 | – | – |
| CG11964 | DRSC14447 | 116 | 145 | – | – |
| dap (dacapo) | DRSC07601 | 115 | 143 | – | – |
| CG42254 (retired record) | DRSC06194 | 177 | 224 | – | – |
| CG42268 | DRSC10171 | 88.7 | 105 | – | – |
| CG42268 | DRSC10702 | 96.5 | 102 | – | – |
| CG42268 | DRSC21797 | 175 | 117 | – | – |
| CG42634 + CG42635 | DRSC02450 | 124 | 138 | – | – |
| CG17985 | DRSC06702 | 119 | 128 | – | – |
| CG5455 | DRSC15805 | 100 | 156 | – | – |
| ova (ovaries absent) | DRSC02879 | 73.6 | 88.2 | – | – |
| ninaG | DRSC16102 | 161 | 118 | – | – |
| fd3F + CR42499 | DRSC18160 | 110 | 85.3 | – | – |
| fd3F + CR42499 | DRSC18161 | 111 | 82.5 | – | – |
| Hira | DRSC18672 | 60 (active) | 175 | – | – |
| Ir94b (Ionotropic receptor 94b) | DRSC21439 | 118 | 67.2 | – | – |
| cyc (cycle) | DRSC11337 | 132 | 149 | – | – |
| lncRNA:Hsromega (Heat shock RNA omega) | DRSC22875 | 73.7 | 156 | – | – |
| nompA (no mechanoreceptor potential A) | DRSC06329 | 132 | 201 | – | – |
| dpr8 (defective proboscis extension response 8) | DRSC19406 | 115 | 149 | – | – |
| dpr8 (defective proboscis extension response 8) | DRSC19600 | 131 | 147 | – | – |
| dpr8 (defective proboscis extension response 8) | DRSC19938 | 107 | 133 | – | – |
| dpr8 (defective proboscis extension response 8) | DRSC19939 | 99.5 | 119 | – | – |
| CG15414 | DRSC00429 | 157 | 86.4 | – | – |
| CG15414 | DRSC22353 | 128 | 254 | – | – |
| NimC2 (Nimrod C2) | DRSC01881 | 130 | 114 | – | – |
| Slc25A46a | DRSC20125 | 100 | 134 | – | – |
| CG13806 | DRSC08341 | 51 | 103 | – | – |
| His-Psi:CR31616 + His-Psi:CR31615 | DRSC03760 | 64.6 (active) | 5590 | – | – |
| CG3419 (retired record) | DRSC04368 | 153 | 142 | – | – |
| CG3419 (retired record) | DRSC04369 | 175 | 214 | – | – |
| CG13074 | DRSC09957 | 83.6 | 139 | – | – |
| CAH3 (Carbonic anhydrase 3) | DRSC17776 | 265 | 90.7 | – | – |
| CG3515 | DRSC00609 | 175 | 102 | – | – |
| natalisin | DRSC14966 | 121 | 68.8 | – | – |
| natalisin | DRSC14967 | 95.8 | 127 | – | – |
| RpL18A (Ribosomal protein L18A) | DRSC07538 | 128 | 101 | – | – |
| Pex2 (Peroxin 2) | DRSC10770 | 75.2 | 119 | – | – |
| mol (moladietz) | DRSC01431 | 76.8 (active) | 101 | 74.8 | 123 |
| mol (moladietz) | DRSC01912 | 92.2 | 105 | – | – |
| mol (moladietz) | DRSC02479 | 77.3 | 100 | – | – |
| CG3604 | DRSC00618 | 161 | 101 | – | – |
| tai (taiman) | DRSC02207 | 182 | 173 | – | – |
| tai (taiman) | DRSC02673 | 188 | 162 | – | – |
| Acadvl (Acyl-CoA dehydrogenase very long chain) | DRSC07022 | 103 | 124 | – | – |
| Agpat2 (1-Acylglycerol-3-phosphate O-acyltransferase 2) | DRSC03532 | 104 | 237 | – | – |
| Mpc1 | DRSC14770 | 100 | 174 | – | – |
| Sce (Sex combs extra) | DRSC16825 | 106 | 101 | – | – |
| Or71a (Odorant receptor 71a) | DRSC11244 | 106 | 162 | – | – |
| beta4GalNAcTA (beta1,4-N-acetylgalactosaminyltransferase A) | DRSC05944 | 109 | 158 | – | – |
| CG1640 | DRSC19750 | 144 | 120 | – | – |
| CG14556 | DRSC14899 | 304 | 102 | – | – |
| CG14340 | DRSC00370 | 184 | 133 | – | – |
| ClpP (Caseinolytic protease proteolytic subunit) | DRSC02806 | 110 | 106 | – | – |
| CG42496 + Ppcdc | DRSC03886 | 5191 (active) | 97.7 | 8135 | 97.3 |
| Dgat2 (Diacylglycerol O-acyltransferase 2) | DRSC06803 | 196 | 126 | – | – |
| Ude (Uracil-DNA degrading factor) | DRSC15324 | 146 | 201 | – | – |
| unc-13-4A | DRSC10201 | 91.7 | 30.6 | – | – |
| unc-13-4A | DRSC10202 | 67.5 | 53.1 | – | – |
| unc-13-4A | DRSC10203 | 55.6 (active) | 46 | – | – |
| unc-13-4A | DRSC11013 | 70.7 | 60.1 | – | – |
| CG3081 | DRSC18571 | 200 | 97.2 | – | – |
| mia (meiosis I arrest) | DRSC12137 | 129 | 104 | – | – |
| Alp8 (Alkaline phosphatase 8) | DRSC04353 | 41.7 | 181 | – | – |
| CG11626 | DRSC14336 | 118 | 181 | – | – |
| CG13476 | DRSC10019 | 155 | 191 | – | – |
| Mettl2 (Methyltransferase like 2) | DRSC08398 | 166 | 158 | – | – |
| ranshi | DRSC16564 | 90.8 | 159 | – | – |
| ss (spineless) | DRSC17069 | 143 | 139 | – | – |
| CG13116 | DRSC02214 | 213 | 167 | 90.6 | 121 |
| CG13116 | DRSC21945 | 93.2 | 176 | – | – |
| lambdaTry | DRSC06137 | 126 | 212 | – | – |
| ItgaPS4 (Integrin alphaPS4 subunit) | DRSC06630 | 107 | 210 | – | – |
| RhoGAP18B (Rho GTPase activating protein at 18B) | DRSC19763 | 71.2 (active) | 136 | – | – |
| RhoGAP18B (Rho GTPase activating protein at 18B) | DRSC20047 | 188 | 106 | – | – |
| RhoGAP18B (Rho GTPase activating protein at 18B) | DRSC20048 | 182 | 98.7 | – | – |
| RhoGAP18B (Rho GTPase activating protein at 18B) | DRSC20049 | 184 | 117 | – | – |
| CG9312 | DRSC16471 | 105 | 120 | – | – |
| E2f1 (E2F transcription factor 1) | DRSC16655 | 153 | 130 | – | – |
| REPTOR-BP (REPTOR-binding partner) | DRSC02683 | 145 | 154 | – | – |
| CG10512 | DRSC11615 | 110 | 93.1 | – | – |
| ND-B14 (NADH dehydrogenase (ubiquinone) B14 subunit) | DRSC07029 | 107 | 148 | – | – |
| CG17108 | DRSC02576 | 68.6 (active) | 82.5 | – | – |
| CG17108 | DRSC22214 | 119 | 256 | – | – |
| CG3529 | DRSC10369 | 125 | 101 | – | – |
| CG1316 | DRSC08304 | 93.5 | 111 | – | – |
| CG13022 | DRSC09902 | 94.7 | 132 | – | – |
| CG7653 | DRSC01886 | 139 | 115 | – | – |
| CG31998 | DRSC17137 | 123 | 155 | – | – |
| CG31998 | DRSC17138 | 112 | 204 | – | – |
| strat (stratum) | DRSC03069 | 171 | 175 | – | – |
